{"source": "PubChem BioAssay AID1259259, Sanger Institute, 2017", "purpose": "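Kinase silencing that lowers colorectal cancer cell viability alone or with drugs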 (primary screen)", "cell system": "SW1463 human colorectal cancer cells", "reagents": "siRNA pool against human genes", "conditions": "DMSO vehicle, or one anchor drug: BYL719 at 1 µM, cetuximab at 5 µg/ml, or trametinib at 10 nM", "measured": "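Viability as fraction of control pool 2 (non-targeting), replicate mean; knock-down robust z-score without any drug; synergy score averaged for each anchor drug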", "scale": "robust z-score, knock-down alone: higher = more viable cells after knock-down", "rule for the call": "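Knock-down called essential when its robust z-score without drug falls below -3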", "meaning of the calls": "active = essential: viability loss from knock-down alone; inactive = no change from knock-down alone", "note": "Shown is an unselected part of 794 reagents tested. 9 of them (1.1%) were called active. 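Calls rest on knock-down alone, not drug synergy; viability values seem capped at 1.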 Further read-outs or replicates are left out here. Reagent sequences are not shown. The record does not give: the amount of reagent, the time to read-out."}
{"Gene":"CSNK1E","robust z-score, knock-down alone":-0.464,"Outcome":"inactive"}
{"Gene":"RPS6KA4","robust z-score, knock-down alone":-0.0969,"Outcome":"inactive"}
{"Gene":"MAPK9","robust z-score, knock-down alone":1.13,"Outcome":"inactive"}
{"Gene":"VRK3","robust z-score, knock-down alone":-0.795,"Outcome":"inactive"}
{"Gene":"PRKACG","robust z-score, knock-down alone":1.13,"Outcome":"inactive"}
{"Gene":"CDK2","robust z-score, knock-down alone":0.605,"Outcome":"inactive"}
{"Gene":"OXSR1","robust z-score, knock-down alone":-0.117,"Outcome":"inactive"}
{"Gene":"MAP3K11","robust z-score, knock-down alone":-1.19,"Outcome":"inactive"}
{"Gene":"TWF1","robust z-score, knock-down alone":0.533,"Outcome":"inactive"}
{"Gene":"COMMD3","robust z-score, knock-down alone":0.821,"Outcome":"inactive"}
{"Gene":"EPHA6","robust z-score, knock-down alone":0.362,"Outcome":"inactive"}
{"Gene":"AK2","robust z-score, knock-down alone":-0.357,"Outcome":"inactive"}
{"Gene":"PRKAA2","robust z-score, knock-down alone":0.385,"Outcome":"inactive"}
{"Gene":"TP53RK","robust z-score, knock-down alone":0.861,"Outcome":"inactive"}
{"Gene":"RPS6KB2","robust z-score, knock-down alone":1.13,"Outcome":"inactive"}
{"Gene":"TNK2","robust z-score, knock-down alone":-0.239,"Outcome":"inactive"}
{"Gene":"SYK","robust z-score, knock-down alone":-3.67,"Outcome":"active"}
{"Gene":"MAP3K20","robust z-score, knock-down alone":0.39,"Outcome":"inactive"}
{"Gene":"PEAK1","robust z-score, knock-down alone":-0.981,"Outcome":"inactive"}
{"Gene":"MAP4K4","robust z-score, knock-down alone":-1.72,"Outcome":"inactive"}
{"Gene":"MAP3K9","robust z-score, knock-down alone":0.274,"Outcome":"inactive"}
{"Gene":"GUCY2C","robust z-score, knock-down alone":1.13,"Outcome":"inactive"}
{"Gene":"DGKB","robust z-score, knock-down alone":-0.245,"Outcome":"inactive"}
{"Gene":"RPS6KA6","robust z-score, knock-down alone":-0.318,"Outcome":"inactive"}
{"Gene":"HUNK","robust z-score, knock-down alone":-1.53,"Outcome":"inactive"}
{"Gene":"CDKL4","robust z-score, knock-down alone":0.0315,"Outcome":"inactive"}
{"Gene":"PIM1","robust z-score, knock-down alone":-0.159,"Outcome":"inactive"}
{"Gene":"MYLK","robust z-score, knock-down alone":-1.52,"Outcome":"inactive"}

Hits, of those listed so far:
{"Gene":"SYK","robust z-score, knock-down alone":-3.67,"Outcome":"active"}
